Laboratory results reported in PubChem BioAssay (EPA / NIEHS).
The inconclusive results got no clear call from the source; some entries with a clear call stand among them for comparison. For part of these data: Potencies of inconclusive entries are doubtful fits and often do not repeat. The source made the active and inactive calls. Rule for the calls: active = hit-call score of the fitted dose curve at least 0.9, where 1 is the maximum; inconclusive = response in the unintended direction; inactive = score below 0.9.

Tested on: Sodium/Iodide Symporter (NIS), SLC5A5 (gene 6528)
Experiment: CPHEA_Stoker_NIS_Inhibition_RAIU: CPHEA's Radioactive Iodide Uptake (RAIU) Assay for Sodium/Iodide Symporter (NIS) Inhibition, Stoker and Laws Labs (AID 2283841)
Outline: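 Iodide uptake through human NIS is measured in an engineered HEK293T line. Cells take up 125I (329pM final) for 2 hours at room temperature alongside chemicals at 0.001–100uM. Retained radioactivity is counted, and the signal is expressed against DMSO controls.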
In the case of `Cn1c(=O)cc(Oc2ccc(F)cc2F)c2cnc(NCC(C)(C)O)nc21`, the AC50 was inconclusive: 0.000807 µM. With `CCCCCCCCCCCCc1ccccc1S(=O)(=O)O` the outcome was “inactive”. With `OCC(F)(F)C(F)(F)C(F)(F)C(F)(F)C(F)(F)C(F)F` the outcome was “inactive”.

Tested on: not listed separately
Experiment: TOX21_PR_BLA_Followup_Antagonist_viability: Viability Assessment in the Tox21 HEK293 Progesterone Receptor (PR) Antagonism Beta-lactamase Follow-Up Assay (AID 2283936);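 note: hits lower the luminescence signal meaning cytotoxicity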
Outline: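 PR-UAS-bla HEK293T cells (3,000/well, 2% charcoal-stripped FBS) given compound plus R5020 agonist, 16 h at 37C. CellTiter-Glo added after bla read, 30 min at room temperature; luminescence loss indicates cytotoxicity.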
In the case of `CC(C)(c1cc(Br)c(OCCO)c(Br)c1)c1cc(Br)c(OCCO)c(Br)c1`, the AC50 was active: 54 µM. In the case of `COC(=O)C1=C(C)NC(C)=C(C(=O)OCCN(C)Cc2ccccc2)C1c1cccc([N+](=O)[O-])c1` (stereo unspecified), the AC50 was active: 72.7 µM. In the case of `C#C[C@]1(O)CC[C@H]2[C@@H]3CCC4=Cc5oncc5C[C@]4(C)[C@H]3CC[C@@]21C`, the outcome was “inactive”.
